In the supplement of paper PMC4807443:
Where a name gives a salt, the structure may show the parent alone. The list shows a part of the results. The numbers are fractions of the control, whatever unit the source prints. Most entries show no effect beyond the scatter of the controls.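 A lentiviral reporter stably expressed in MIN6 mouse insulinoma beta cells uses Pdx1 and Ins1 promoters to drive separate nucleus-targeted fluorescent proteins; automated imaging with Hoechst nuclear stain counted cells. Possible hits were drugs shifting Ins1 promoter signal more than two median absolute deviations from DMSO controls, with Pdx1 activity roughly normal.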

Test system: MIN6
Experiment: % Pdx1+ Ins1-low (RFP-only, immature) cells relative to DMSO control (fold of DMSO control); higher = more immature Pdx1+/Ins1-low cells
Conditions: 8.5 µM; 48 h; glucose 5 mM

Row | SMILES | % Pdx1+ Ins1-low
1 | c1ccc2c(CC3=NCCN3)cccc2c1 [Naphazoline hydrochloride] | 1.21
2 | CC(=O)OCC(=O)[C@@]12OC(C)(C)O[C@@H]1C[C@H]1[C@@H]3C[C@H](F)C4=CC(=O)C=C[C@]4(C)[C@@]3(F)[C@@H](O)C[C@@]12C [Fluocinonide] | 1.17
3 | CCN(CC)CC(=O)Nc1c(C)cccc1C [Lidocaïne hydrochloride] | 0.824
4 | CCC(=O)O[C@@H]1CC(=O)O[C@H](C)C/C=C/C=C/[C@H](O)[C@H](C)C[C@H](CC=O)[C@H](O[C@@H]2O[C@H](C)[C@@H](O[C@H]3C[C@@](C)(O)[C@@H](OC(=O)CC)[C@H](C)O3)[C@H](N(C)C)[C@H]2O)[C@H]1OC [Midecamycin] | 0.774
5 | CO[C@@H]1[C@@H](O[C@@H]2O[C@H](C)[C@@H](O[C@H]3C[C@@](C)(O)[C@@H](OC(=O)CC(C)C)[C@H](C)O3)[C@H](N(C)C)[C@H]2O)[C@@H](CC=O)C[C@@H](C)[C@@H](O)/C=C/C=C/C[C@@H](C)OC(=O)C[C@H]1OC(C)=O [Josamycin] | 0.619
6 | COc1cccc2c1C(=O)c1c(O)c3c(c(O)c1C2=O)C[C@@](O)(C(C)=O)C[C@@H]3O[C@H]1C[C@H](N)[C@H](O)[C@H](C)O1 [Daunorubicin hydrochloride] | 2.13
7 | CC(=O)NS(=O)(=O)c1ccc(N)cc1 [Sulfacetamide sodic hydrate] | 0.779
8 | NS(=O)(=O)c1cc2c(cc1C(F)(F)F)NCNS2(=O)=O [Hydroflumethiazide] | 0.674
9 | CC(C)NC[C@@H](O)COc1ccc(CC(N)=O)cc1 [(R)-(+)-Atenolol] | 1.32
10 | CC(O)Cn1cnc2c1c(=O)n(C)c(=O)n2C (stereo not drawn) [Proxyphylline] | 1.01
11 | Cc1c(NC(=O)c2cccnc2)c(=O)n(-c2ccccc2)n1C [Nifenazone] | 1.15
12 | CC[C@@H]1C(=O)OC[C@@H]1Cc1cncn1C [Pilocarpine nitrate] | 1.68
13 | CN1C(=O)CC[C@H]1c1cccnc1 [Cotinine (-)] | 0.594
14 | Cc1nc2ccccn2c(=O)c1CCN1CCC(C(=O)c2ccc(F)cc2)CC1 [Pirenperone] | 1.29
15 | N/C(=N\C(=O)c1nc(Cl)c(N)nc1N)NCc1ccccc1 [Benzamil hydrochloride] | 0.826
16 | O=C(CCNNC(=O)c1ccncc1)NCc1ccccc1 [Nialamide] | 0.967
17 | NC(=O)c1cnccn1 [Pyrazinamide] | 0.479
18 | CC(=O)O[C@H]1C(=O)[C@@]2(C)[C@H]([C@H](OC(=O)c3ccccc3)[C@]3(O)C[C@H](OC(=O)[C@H](O)[C@@H](NC(=O)c4ccccc4)c4ccccc4)C(C)=C1C3(C)C)[C@]1(OC(C)=O)CO[C@@H]1C[C@@H]2O [Paclitaxel] | 0.619
19 | C=C(C)[C@@H]1CC[C@]2(CO)CC[C@]3(C)[C@H](CC[C@@H]4[C@@]5(C)CC[C@H](O)C(C)(C)[C@@H]5CC[C@]43C)[C@@H]12 [Betulin] | 0.844
20 | Nc1cc(N2CCCCC2)nc(N)[n+]1[O-] [Minoxidil] | 1.06
21 | COc1ccc2cc([C@H](C)C(=O)O)ccc2c1 [Naproxen] | 0.683
22 | O=C(O)c1ccccc1OP(=O)(O)O [Fosfosal] | 0.975
23 | C/C=C(/C(=C/C)c1ccc(O)cc1)c1ccc(O)cc1 [Dienestrol] | 0.954

Row | SMILES | % Pdx1+ Ins1-low
24 | O=c1n(CCCN2CCN(c3cccc(Cl)c3)CC2)nc2ccccn12 [Trazodone hydrochloride] | 0.66
25 | CC1(C)S[C@@H]2[C@H](NC(=O)[C@H](N)c3ccccc3)C(=O)N2[C@H]1C(=O)O [Ampicillin trihydrate] | 0.56
26 | CCCCc1ccc2[nH]c(NC(=O)OC)nc2c1 [Parbendazole] | 1.04
27 | C[C@@H]1C[C@H]2[C@@H]3CCC4=CC(=O)C=C[C@]4(C)[C@@]3(Cl)[C@@H](O)C[C@]2(C)[C@@]1(OC(=O)c1ccco1)C(=O)CCl [Mometasone furoate] | 1.49
28 | CN1CCCN(C(c2ccccc2)c2ccc(Cl)cc2)CC1 (stereo not drawn) [Homochlorcyclizine dihydrochloride] | 0.723
29 | Nc1ncnc2c1ncn2C1OC(COP(=O)(O)O)C(O)C1O (stereo not drawn) [Adenosine 5'-monophosphate monohydrate] | 0.696
30 | O=C(O)c1cc(/N=N/c2ccc(S(=O)(=O)Nc3ccccn3)cc2)ccc1O [Sulfasalazine] | 1.3
31 | CN/C(=N\CCSCc1nc[nH]c1C)NC#N [Cimetidine] | 1.02
32 | CCc1cccc(CC)c1NC(=O)CN(CC(=O)O)CC(=O)O [Etifenin] | 1.07
33 | CC1(C)S[C@@H]2[C@H](NC(=O)C3(N)CCCCC3)C(=O)N2[C@H]1C(=O)O [Cyclacillin] | 0.809
34 | C[C@@H]1CCC[C@H](C)N1 [(cis-) Nanophine] | 0.883
35 | CC(N)CCCC(C)(C)O (stereo not drawn) [Heptaminol hydrochloride] | 1.05
36 | CN1CCCN=C1/C=C/c1cccc(O)c1 [Oxantel pamoate] | 1.57
37 | CC(C)OC(=O)C(C)(C)Oc1ccc(C(=O)c2ccc(Cl)cc2)cc1 [Fenofibrate] | 0.852
38 | Cc1c(O)c(=O)n(-c2ccccc2)n1C [Antipyrine, 4-hydroxy] | 1.12
39 | C[C@H]1[C@H](C)CC[C@]2(C(=O)O[C@@H]3O[C@H](CO[C@@H]4O[C@H](CO)[C@@H](O[C@@H]5O[C@H](C)[C@H](O)[C@@H](O)[C@H]5O)[C@H](O)[C@H]4O)[C@@H](O)[C@H](O)[C@H]3O)CC[C@]3(C)C(=CC[C@@H]4[C@@]5(C)C[C@@H](O)[C@H](O)[C@@](C)(CO)[C@@H]5CC[C@]43C)[C@H]12 [Asiaticoside] | 0.74
40 | CN(C)[C@@H]1C(O)=C(C(N)=O)C(=O)[C@@]2(O)C(O)=C3C(=O)c4c(O)cccc4[C@@](C)(O)[C@H]3C[C@@H]12 [Tetracycline hydrochloride] | 0.944
41 | O=C(O)C1CCCNC1 (racemic) [(±)-Nipecotic acid] | 0.888
42 | COCCCC/C(=N\OCCN)c1ccc(C(F)(F)F)cc1 [Fluvoxamine maleate] | 1.11
43 | C[C@]12CCC(=O)C=C1CC[C@@H]1[C@@H]2C(=O)C[C@@]2(C)[C@H]1CC[C@]2(O)C(=O)CO [Cortisone] | 0.795
44 | CO[C@H]1/C=C/O[C@@]2(C)Oc3c(C)c(O)c4c(O)c(c(/C=N/N5CCN(C)CC5)c(O)c4c3C2=O)NC(=O)/C(C)=C\C=C\[C@H](C)[C@H](O)[C@@H](C)[C@@H](O)[C@@H](C)[C@H](OC(C)=O)[C@@H]1C [Rifampicin] | 1.03
45 | CCCSc1ccc2[nH]c(NC(=O)OC)nc2c1 [Albendazole] | 1.09
46 | Cc1c(Cl)cccc1Nc1ccccc1C(=O)O [Tolfenamic acid] | 0.905

Compounds shown so far with a CF3 group (2):
Row | SMILES | % Pdx1+ Ins1-low
8 | NS(=O)(=O)c1cc2c(cc1C(F)(F)F)NCNS2(=O)=O [Hydroflumethiazide] | 0.674
42 | COCCCC/C(=N\OCCN)c1ccc(C(F)(F)F)cc1 [Fluvoxamine maleate] | 1.11

Following part:

Row | SMILES | % Pdx1+ Ins1-low
47 | Cc1ccc(N(CC2=NCCN2)c2cccc(O)c2)cc1 [Phentolamine hydrochloride] | 1.17
48 | O=C(O)CCc1nc(-c2ccccc2)c(-c2ccccc2)o1 [Oxaprozin] | 0.85
49 | Clc1ccc2c(c1)C(N1CCNCC1)=Nc1ccccc1O2 [Amoxapine] | 1.07
50 | O=C1c2ccccc2C(=O)C1c1ccccc1 [Phenindione] | 1.05
51 | CC(C)(Oc1ccc(CCNC(=O)c2ccc(Cl)cc2)cc1)C(=O)O [Bezafibrate] | 1.11
52 | OCCN1CCN(CCCN2c3ccccc3Sc3ccc(C(F)(F)F)cc32)CC1 [Fluphenazine dihydrochloride] | 1.03
53 | c1ccc(CC2=NCCN2)cc1 [Tolazoline hydrochloride] | 0.849
54 | CC[C@H]1OC(=O)[C@H](C)[C@@H](O[C@H]2C[C@@](C)(OC)[C@@H](O)[C@H](C)O2)[C@H](C)[C@@H](O[C@@H]2O[C@H](C)C[C@H](N(C)C)[C@H]2O)[C@](C)(O)C[C@@H](C)C(=O)[C@H](C)[C@@H](O)[C@]1(C)O [Erythromycin] | 1.37
55 | CCn1cc(C(=O)O)c(=O)c2cc(F)c(N3CCNCC3)nc21 [Enoxacin] | 1.08
56 | CC(C(=O)O)c1cccc(Oc2ccccc2)c1 (stereo not drawn) [Fenoprofen calcium salt dihydrate] | 0.533
57 | CCCc1ncc(C[n+]2ccccc2C)c(N)n1 [Amprolium hydrochloride] | 0.997
58 | C=C(CC)C(=O)c1ccc(OCC(=O)O)c(Cl)c1Cl [Ethacrynic acid] | 1.25
59 | Nc1ccc(S(=O)(=O)NC(=O)c2ccccc2)cc1 [Sulfabenzamide] | 0.976
60 | CCN(CC)CCCC(C)Nc1ccnc2cc(Cl)ccc12 (stereo not drawn) [Chloroquine diphosphate] | 1.05
61 | CS(=O)(=O)c1ccc([C@@H](O)[C@@H](CF)NC(=O)C(Cl)Cl)cc1 [Florfenicol] | 1.01
62 | c1ccc2c(c1)CCCC2C1=NCCN1 (stereo not drawn) [Tetrahydrozoline hydrochloride] | 1.11
63 | C[C@@H](O)[C@H]1C(=O)N2C(C(=O)O)=C(SCCNC=N)C[C@H]12 [Imipenem] | 0.806
64 | OCC(O)CN1CCN(c2ccccc2)CC1 (racemic) [Dropropizine (R,S)] | 1.39
65 | CNc1ncnc2c1ncn2[C@@H]1O[C@H](CO)[C@@H](O)[C@H]1O [N6-methyladenosine] | 0.58
66 | CC(C)(C)C(=O)OCOC(=O)[C@@H]1N2C(=O)[C@@H](/N=C/N3CCCCCC3)[C@H]2SC1(C)C [Pivmecillinam hydrochloride] | 0.889
67 | O=C1NCCN1c1ncc([N+](=O)[O-])s1 [Niridazole] | 0.824
68 | C=C(C)[C@@H]1CC[C@]2(C(=O)O)CC[C@]3(C)[C@H](CC[C@@H]4[C@@]5(C)CC[C@H](O)C(C)(C)[C@@H]5CC[C@]43C)[C@@H]12 [Betulinic acid] | 1.27

Some of the entries so far, field by field:
CN1CCCN(C(c2ccccc2)c2ccc(Cl)cc2)CC1 (stereo not drawn) [Homochlorcyclizine dihydrochloride]
  % Pdx1+ Ins1-low: 0.723
CCc1cccc(CC)c1NC(=O)CN(CC(=O)O)CC(=O)O [Etifenin]
  % Pdx1+ Ins1-low: 1.07
CN(C)[C@@H]1C(O)=C(C(N)=O)C(=O)[C@@]2(O)C(O)=C3C(=O)c4c(O)cccc4[C@@](C)(O)[C@H]3C[C@@H]12 [Tetracycline hydrochloride]
  % Pdx1+ Ins1-low: 0.944
